We go through four molecules from publication PMC4102591.

Amino acid sequences for entries named in this document (tags omitted).
UniProt O14894: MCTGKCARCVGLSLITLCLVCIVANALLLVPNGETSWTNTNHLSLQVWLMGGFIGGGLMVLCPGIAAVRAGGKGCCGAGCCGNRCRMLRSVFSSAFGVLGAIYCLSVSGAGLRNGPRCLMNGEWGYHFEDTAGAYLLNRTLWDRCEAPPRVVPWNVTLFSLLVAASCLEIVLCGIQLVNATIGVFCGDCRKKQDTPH
UniProt P08962: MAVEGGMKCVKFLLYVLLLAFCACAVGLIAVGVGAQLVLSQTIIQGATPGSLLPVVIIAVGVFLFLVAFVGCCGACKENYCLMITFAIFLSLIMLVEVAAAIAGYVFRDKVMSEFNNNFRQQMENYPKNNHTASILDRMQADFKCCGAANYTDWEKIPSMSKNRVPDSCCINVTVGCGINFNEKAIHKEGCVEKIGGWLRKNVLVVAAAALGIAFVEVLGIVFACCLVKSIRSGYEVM

No constants are given. Whether binding was seen depends on the method and setting. Binding seen in cells or lysates may run through a third protein. Some results given as binding are weak or reduced against the parent protein; the word gives no strength.

Experiment [1] has as its target Strep-TM4SF5 (transmembrane 4 L6 family member 5, Strep-tagged) (UniProt O14894). In words: co-IP; lysates of Chang cells transfected with Strep-TM4SF5 or control Strep plasmid, precipitated by the Strep tag on beads, blotted for CD151, CD63 and the tag; lysis buffer 10 mM Tris pH 7.5, 150 mM NaCl, 1 mM CaCl2, 1 mM MgCl2, 1% Brij97.
The target of experiment [2] is T1, CD151 (Tspan24), endogenous (human (endogenous in Chang, HCC827, Chang-TGFβ1)) (UniProt P48509).
T1 sequence: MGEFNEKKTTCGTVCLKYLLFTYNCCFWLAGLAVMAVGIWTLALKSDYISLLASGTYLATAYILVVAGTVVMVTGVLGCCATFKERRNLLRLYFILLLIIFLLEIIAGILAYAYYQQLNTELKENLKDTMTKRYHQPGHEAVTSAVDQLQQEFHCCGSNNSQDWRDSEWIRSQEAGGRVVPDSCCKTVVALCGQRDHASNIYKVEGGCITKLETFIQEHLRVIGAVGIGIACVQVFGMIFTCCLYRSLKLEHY
As to the kind of experiment: co-IP; extracts of HCC827 cells transfected with FLAG-TM4SF5 or FLAG-mock, immunoprecipitated with anti-CD151 antibody, blotted for FLAG and CD151; 1% Brij97 lysis buffer.

Experiment [3] has as its target T1, CD151 (Tspan24), endogenous (human (endogenous in Chang, HCC827, Chang-TGFβ1)). In words: co-IP; extracts of Chang-TGFβ1 cells (both proteins endogenous), immunoprecipitated with normal IgG or anti-CD151 antibody, blotted for CD151 and TM4SF5; 1% Brij97 lysis buffer.

For “CD63 (Tspan30), endogenous (from UniProt P08962 1-238)”, in experiment [1], the binding result is given as “no binding”.

For “FLAG-TM4SF5 (transmembrane 4 L6 family member 5, FLAG-tagged) (from UniProt O14894 1-197)”, the binding result in experiment [2] was “binds”.

On to “Transmembrane 4 L6 family member 5 (TM4SF5), endogenous (from UniProt O14894 1-197)”, for which the binding entry in experiment [3] is on record as “binds”.

B1: CD151 (Tspan24), endogenous (protein, UniProt P48509 1-253)
chain: MGEFNEKKTTCGTVCLKYLLFTYNCCFWLAGLAVMAVGIWTLALKSDYISLLASGTYLATAYILVVAGTVVMVTGVLGCCATFKERRNLLRLYFILLLIIFLLEIIAGILAYAYYQQLNTELKENLKDTMTKRYHQPGHEAVTSAVDQLQQEFHCCGSNNSQDWRDSEWIRSQEAGGRVVPDSCCKTVVALCGQRDHASNIYKVEGGCITKLETFIQEHLRVIGAVGIGIACVQVFGMIFTCCLYRSLKLEHY
For B1, in experiment [1], the binding entry is listed as “binds”.
